## Melanoma cell counts after drug treatment

All values are for the listed drug together with etoposide (0.1 µM): COc1cc([C@@H]2c3cc4c(cc3[C@@H](O[C@@H]3O[C@@H]5CO[C@@H](C)O[C@H]5[C@H](O)[C@H]3O)[C@H]3COC(=O)[C@H]23)OCO4)cc(OC)c1O

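Human melanoma cell lines in 1,536-well plates were treated with two drugs together for 72 h, then fixed, stained and imaged. The read-out is cell count (nuclei) in % of the DMSO control; lower values mean stronger growth inhibition or killing. Every drug was used at one fixed concentration, the higher of two screened. No replicate spread is given; individual values may be noisy.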 This is part of the screen, not chosen by result.

Partner,COLO 792,C32,WM451Lu,WM3619,COLO 800,COLO 829
N#CC[C@H](C1CCCC1)n1cc(-c2ncnc3[nH]ccc23)cn1 at 5 µM,78.0,99.4,105,50.5,78.8,92.9
Cc1cc(Nc2cc(N3CCN(C)CC3)nc(Sc3ccc(NC(=O)C4CC4)cc3)n2)n[nH]1 at 0.03 µM,78.7,62.9,85.5,67.8,81.0,70.5
CC(=O)c1c(C)c2cnc(Nc3ccc(N4CCNCC4)cn3)nc2n(C2CCCC2)c1=O at 0.2 µM,32.7,65.8,68.0,51.8,64.9,81.7
Cn1cnc2c(F)c(Nc3ccc(Br)cc3Cl)c(C(=O)NOCCO)cc21 at 0.075 µM,70.1,71.7,66.6,66.1,63.0,80.5
O=c1cc(-c2cccc3c2Sc2ccccc2S3)oc(N2CCOCC2)c1 at 5 µM,86.4,94.2,109,60.2,72.8,90.0
O=C(Oc1ccc([N+](=O)[O-])cc1)N1CCC(C(O)(c2ccc3c(c2)OCO3)c2ccc3c(c2)OCO3)CC1 at 5 µM,87.0,92.9,87.9,67.7,119,73.1
O=C(O)[C@@H]1[O][Sb](=[O])([O][Sb]2(=[O])[O][C@H]([C@H](O)CO)[C@H](O)[C@H](C(=O)O)[O]2)[O][C@H]([C@H](O)CO)[C@@H]1O (some centres undefined) at 10 µM,75.7,84.3,83.4,69.2,77.9,86.2
Nc1nc(F)nc2c1ncn2[C@@H]1O[C@H](CO)[C@@H](O)[C@@H]1O at 1 µM,70.8,88.2,90.7,66.8,77.7,75.3
COC(=O)c1sccc1S(=O)(=O)Nc1ccc(Nc2ccccc2)cc1OC at 5 µM,106,96.9,87.6,72.7,64.1,90.6
Cc1cc(Nc2cc(N3CCN(C)CC3)nc(/C=C/c3ccccc3)n2)n[nH]1 at 0.2 µM,81.1,94.5,82.3,78.6,74.2,75.5
CCCCCCCCc1ccc(CCC(N)(CO)CO)cc1 at 10 µM,3.4,9.2,6.8,5.3,6.7,36.8
Cc1nc(Nc2ncc(C(=O)Nc3c(C)cccc3Cl)s2)cc(N2CCN(CCO)CC2)n1 at 0.02 µM,39.2,64.1,59.0,65.5,60.8,47.4
O=C(Nc1cc(C(F)(F)F)cc(C(F)(F)F)c1)c1cc(Cl)ccc1O at 0.08 µM,102,84.8,86.4,99.3,102,87.7
Cn1cc(C2=C(c3cn(C4CCN(Cc5ccccn5)CC4)c4ccccc34)C(=O)NC2=O)c2ccccc21 at 4 µM,154,74.1,96.6,82.5,107,117
O=C(O)C(=O)Nc1sc2c(c1C(=O)O)CCNC2 at 8.33 µM,97.1,80.0,94.4,52.2,58.9,98.4
c1cc(-c2cnn3cc(-c4ccc(OCCN5CCCCC5)cc4)cnc23)ccn1 at 2 µM,75.4,46.6,67.5,58.4,74.0,74.4
C[C@]1(O)C[C@@H](c2nc(-c3ccc4ccc(-c5ccccc5)nc4c3)c3c(N)nccn32)C1 at 2 µM,84.0,82.2,91.7,67.0,41.6,96.4
NC(=O)c1ccc(N(C(N)=O)c2c(F)cccc2F)nc1-c1ccc(F)cc1F at 2 µM,87.9,85.5,95.9,101,53.3,95.3
CC[C@]1(O)C[C@H]2CN(CCc3c([nH]c4ccccc34)[C@@](C(=O)OC)(c3cc4c(cc3OC)N(C=O)[C@H]3[C@@](O)(C(=O)OC)[C@H](OC(C)=O)[C@]5(CC)C=CCN6CC[C@]43[C@@H]65)C2)C1 at 0.0005 µM,89.9,63.5,49.9,65.6,70.1,79.1
Nc1cccc2c1CN(C1CCC(=O)NC1=O)C2=O (centres undefined) at 5 µM,76.7,84.6,97.2,54.2,70.3,75.4
C[As](C)SC[C@H](NC(=O)CC[C@H](N)C(=O)O)C(=O)NCC(=O)O at 2 µM,107,92.0,68.8,87.1,139,89.5
Cc1cc(SCc2sc(-c3ccc(C(F)(F)F)c(F)c3)nc2C)ccc1OCC(=O)O at 10 µM,97.6,76.6,92.1,63.0,106,71.5
CN1CCN(c2ccc3nc(-c4c(N)c5c(F)cccc5[nH]c4=O)[nH]c3c2)CC1 at 0.5 µM,48.0,62.0,72.1,40.7,41.5,48.1
CN(NC(=O)CC(=O)NN(C)C(=S)c1ccccc1)C(=S)c1ccccc1 at 0.03 µM,30.9,15.0,99.2,8.1,21.8,59.4
COc1cc(N2CCC(N3CCN(C)CC3)CC2)ccc1Nc1ncc(Cl)c(Nc2ccccc2S(=O)(=O)C(C)C)n1 at 0.4 µM,89.3,76.6,80.3,63.4,66.8,104
N.N.[Cl][Pt][Cl] at 8 µM,81.0,76.3,92.7,62.2,78.1,88.2
O=S(=O)(c1ccccc1)N(CC(F)(F)F)c1ccc(C(O)(C(F)(F)F)C(F)(F)F)cc1 at 7 µM,77.9,83.4,90.5,79.1,86.3,90.5
CC(C)C[C@H](NC(=O)[C@H](Cc1ccccc1)NC(=O)c1cnccn1)B(O)O at 0.005 µM,39.2,29.9,25.8,0.6,67.3,13.1
C=CCNC1=C2C[C@@H](C)C[C@H](OC)[C@H](O)[C@@H](C)/C=C(\C)[C@H](OC(N)=O)[C@@H](OC)/C=C\C=C(/C)C(=O)NC(=CC1=O)C2=O at 0.01 µM,77.6,17.9,67.6,51.7,103,106
Cn1cncc1[C@@](N)(c1ccc(Cl)cc1)c1ccc2c(c1)c(-c1cccc(Cl)c1)cc(=O)n2C at 0.05 µM,101,78.1,70.1,75.7,76.7,97.7
O=C1NC(=O)/C(=C/c2ccc(-c3ccc(F)cc3O)o2)S1 at 5 µM,96.2,77.5,89.4,82.8,111,91.4
C[C@@H](N)c1ccc(C(=O)Nc2ccnc3[nH]ccc23)cc1 at 2 µM,60.0,46.5,65.2,69.5,67.1,88.1
Nc1ncn([C@H]2C[C@H](O)[C@@H](CO)O2)c(=O)n1 at 0.5 µM,72.4,89.8,88.2,120,65.3,63.8
COc1cc2c(Oc3ccc4[nH]c(C)cc4c3F)ncnc2cc1OCCCN1CCCC1 at 2 µM,80.5,79.0,101,69.6,45.3,96.2

The first 4 entries again:

* N#CC[C@H](C1CCCC1)n1cc(-c2ncnc3[nH]ccc23)cn1 at 5 µM | COLO 792: 78.0; C32: 99.4; WM451Lu: 105; WM3619: 50.5; COLO 800: 78.8; COLO 829: 92.9
* Cc1cc(Nc2cc(N3CCN(C)CC3)nc(Sc3ccc(NC(=O)C4CC4)cc3)n2)n[nH]1 at 0.03 µM | COLO 792: 78.7; C32: 62.9; WM451Lu: 85.5; WM3619: 67.8; COLO 800: 81.0; COLO 829: 70.5
* CC(=O)c1c(C)c2cnc(Nc3ccc(N4CCNCC4)cn3)nc2n(C2CCCC2)c1=O at 0.2 µM | COLO 792: 32.7; C32: 65.8; WM451Lu: 68.0; WM3619: 51.8; COLO 800: 64.9; COLO 829: 81.7
* Cn1cnc2c(F)c(Nc3ccc(Br)cc3Cl)c(C(=O)NOCCO)cc21 at 0.075 µM | COLO 792: 70.1; C32: 71.7; WM451Lu: 66.6; WM3619: 66.1; COLO 800: 63.0; COLO 829: 80.5

Data from the primary screen of doi:10.1371/journal.pone.0140310, rounded.